Measured values as given in the supplement of paper PMC4962491.
± gives the standard deviation of the averaged measurements. The list shows a part of the results, in another mix than the full data. This data set is noisy: repeats of one test often differ as much as different tests do.

System: FaDu
Assay: mitochondrial oxygen consumption rate normalised to cell number, Z score over the library; higher = higher oxygen consumption (negative = OCR reduction)
Settings: treatment time 24 h, assay medium: 5 mM galactose, 5 mM pyruvate, 4 mM glutamine
Method: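 Primary screen: FaDu cells were incubated 24 h with Pharmakon 1600 / TDI oncology set compounds at 2 or 10 uM. Mitochondrial-specific OCR (basal minus 2 uM antimycin A) was measured on a Seahorse XF96 in assay medium with 5 mM galactose, 5 mM pyruvate and 4 mM glutamine, then corrected for Hoechst cell number and expressed as a Z score […]. Compounds that cut cell number by >66% were excluded. Two repeats.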

SMILES | mitochondrial oxygen consumption rate normalised (2 µM) | mitochondrial oxygen consumption rate normalised (10 µM)
CCOC(=O)NC(=S)Nc1ccccc1NC(=S)NC(=O)OCC | -1 ± 1.1 | -0.249 ± 0.0062
CC(=O)Oc1ccc(Cl)c2cccnc12 | -1.66 ± 0.5 | 
O=P1(NCCCl)OCCCN1CCCl (stereo not drawn) | 0.478 ± 1.6 | 
O=P1(NCCCl)OCCCN1CCCl (stereo not drawn) [Ifosfamide] | 0.177 ± 0.57 | 
Oc1ccc(Cl)cc1 | -0.023 ± 0.38 | 
CC(C)c1c(CN(C)C(C)Cc2ccccc2)n(C)n(-c2ccccc2)c1=O (stereo not drawn) | -0.187 ± 0.22 | 
O=c1[nH]c(=O)n(Cl)c(=O)n1Cl | 0.618 ± 0.097 | 0.623 ± 1.2
NC(=O)CN1CCCC1=O | -0.39 ± 0.64 | 
C[C@@H](CO)NC(=O)[C@@H]1C=C2c3cccc4[nH]cc(c34)C[C@H]2N(C)C1 | 0.0751 ± 0.15 | 
Clc1ccc(C(OCCN2CCCCC2)c2ccccc2)cc1 (stereo not drawn) | -0.571 ± 0.44 | 
Cc1c(N)nc([C@H](CC(N)=O)NC[C@H](N)C(N)=O)nc1C(=O)N[C@H](C(=O)N[C@H](C)[C@@H](O)[C@H](C)C(=O)N[C@H](C(=O)NCCc1nc(-c2nc(C(=O)NCCC[S+](C)C)cs2)cs1)[C@@H](C)O)[C@@H](OC1OC(CO)C(O)C(O)C1OC1OC(CO)C(O)C(OC(N)=O)C1O)c1cnc[nH]1 (stereo partly drawn) [Bleomycin] | 0.429 ± 0.62 | 
Oc1ncc(N(CCCl)CCCl)c(O)n1 [Uracil mustard] | 0.783 ± 0.74 | 
NC(=O)C[S+]([O-])C(c1ccccc1)c1ccccc1 (stereo not drawn) | -0.471 ± 0.58 | 
CC(=O)OCC1=C(C(=O)O)N2C(=O)[C@@H](NC(=O)CCC[C@@H](N)C(=O)O)[C@H]2SC1 | -0.887 ± 0.38 | 
Cc1cccc(C)c1NC1=NCCCS1 | 1.4 ± 0.75 | 
CNC(C)C(O)c1ccccc1 (stereo not drawn) | -0.171 ± 0.82 | 0.176 ± 0.34
COc1cc([C@@H]2c3cc4c(cc3[C@H](O)[C@H]3COC(=O)[C@H]23)OCO4)cc(OC)c1OC | -1.42 ± 0.17 | 
Cc1ccc(O)cc1.Cc1cccc(O)c1.Cc1ccccc1O | 1.49 ± 0.75 | 
CCNC1(c2cccs2)CCCCC1=O (stereo not drawn) | -0.00527 ± 0.29 | 
C[C@@H]1CC[C@H]2[C@@H](C)C(=O)O[C@@H]3O[C@@]4(C)CC[C@@H]1[C@]32OO4 | 0.424 ± 0.75 | 
CC[C@H]1[C@@H]2C[C@H]3[C@@H]4N(C)c5ccccc5[C@]45C[C@@H]([C@@H]2[C@H]5O)N3[C@@H]1O | -0.41 ± 0.68 | 
CC1(C)C(C=C(Cl)Cl)C1C(=O)OCc1cccc(Oc2ccccc2)c1 (stereo not drawn) | 0.301 ± 0.042 | 
CCN(C(C)=O)c1cccc(-c2ccnc3c(C#N)cnn23)c1 | -0.0611 ± 0.038 | 
CNC(C)[C@H](O)c1ccccc1 (stereo partly drawn) | 0.143 ± 0.4 | 
O=[N+]([O-])c1ccc([As](=O)(O)O)cc1 | 1.24 ± 0.7 | 

Part of the list above, reformatted:

| SMILES | mitochondrial oxygen consumption rate normalised (2 µM) | mitochondrial oxygen consumption rate normalised (10 µM) |
| --- | --- | --- |
| O=P1(NCCCl)OCCCN1CCCl (stereo not drawn) [Ifosfamide] | 0.177 ± 0.57 |  |
| NC(=O)C[S+]([O-])C(c1ccccc1)c1ccccc1 (stereo not drawn) | -0.471 ± 0.58 |  |
| Cc1cccc(C)c1NC1=NCCCS1 | 1.4 ± 0.75 |  |
| C[C@@H]1CC[C@H]2[C@@H](C)C(=O)O[C@@H]3O[C@@]4(C)CC[C@@H]1[C@]32OO4 | 0.424 ± 0.75 |  |

Additional records follow:

SMILES | mitochondrial oxygen consumption rate normalised (2 µM) | mitochondrial oxygen consumption rate normalised (10 µM)
COC(=O)C(c1ccccc1)C1CCCCN1 (stereo not drawn) | 0.333 ± 1.8 | 
CO[C@]12C[C@@H](COC(=O)c3cncc(Br)c3)CN(C)[C@@H]1Cc1cn(C)c3cccc2c13 | 0.528 ± 0.35 | 
CC(=O)[C@H]1CC[C@H]2[C@@H]3CC[C@@H]4C[C@H](O)CC[C@]4(C)[C@H]3CC[C@]12C | 0.21 ± 0.55 | 
OC[C@@H](O)[C@H]1O[C@@H]2O[C@H](C(Cl)(Cl)Cl)O[C@@H]2[C@H]1O | -0.375 ± 0.41 | 
C[N+]12CCC(CC1)C(OC(=O)C(O)(c1ccccc1)c1ccccc1)C2 (stereo not drawn) | -0.326 ± 0.77 | 
CC(CC(C(N)=O)(c1ccccc1)c1ccccc1)N(C)C (stereo not drawn) | -0.0818 ± 0.19 | 
CC(C)C[C@H](CN)CC(=O)O | -0.705 ± 0.86 | 
CN(C)C(=S)SSC(=S)N(C)C | 0.386 ± 0.14 | 0.578 ± 0.018
CC(C)(C)NCC(O)c1ccccc1Cl (stereo not drawn) | -0.202 ± 0.19 | 
CCC(C)(C)O | 0.322 ± 1.2 | 
CC(=O)O[C@H]1C[C@H](O[C@H]2[C@@H](O)C[C@H](O[C@H]3[C@@H](O)C[C@H](O[C@H]4CC[C@@]5(C)[C@H](CC[C@@H]6[C@@H]5C[C@@H](O)[C@]5(C)[C@@H](C7=CC(=O)OC7)CC[C@]65O)C4)O[C@@H]3C)O[C@@H]2C)O[C@H](C)[C@H]1O[C@@H]1O[C@H](CO)[C@@H](O)[C@H](O)[C@H]1O | -4.61 ± 0.46 | 
COc1ccc(CCN2CCC(Nc3nc4ccccc4n3Cc3ccc(F)cc3)CC2)cc1 | 0.412 ± 0.22 | 
CCC(N)C(O)c1ccc(O)c(O)c1 (stereo not drawn) | 0.773 ± 1.1 | 
CC1(C)C(C=C(Cl)Cl)C1C(=O)OC(C#N)c1cccc(Oc2ccccc2)c1 (stereo not drawn) | -0.0639 ± 1 | 
Oc1cc(Cl)ccc1Oc1ccc(Cl)cc1Cl | -0.0667 ± 0.036 | 
C[C@]12N[C@H](Cc3ccccc31)c1ccccc12 | -0.115 ± 0.096 | 
C[C@]12CC[C@H]3[C@@H](CC[C@@]45O[C@@H]4C(O)=C(C#N)C[C@]35C)[C@@H]1CC[C@@H]2O | 1.05 ± 0.062 | 
O=C(N/N=C/c1ccc([N+](=O)[O-])o1)c1cc([N+](=O)[O-])cc([N+](=O)[O-])c1O | -0.154 ± 0.61 | 
COc1ccc(Cc2nccc3cc(OC)c(OC)cc23)cc1OC | -0.178 ± 0.71 | 
CCC1(CC)C(=O)C=CNC1=O | 0.611 ± 0.93 | 
O=C(NC(=O)c1c(F)cccc1F)Nc1cc(Cl)c(OC(F)(F)C(F)C(F)(F)F)cc1Cl (stereo not drawn) | -0.0407 ± 0.032 | 
CNCC(=O)c1ccc(O)c(O)c1 | -0.648 ± 0.43 | 
CC(C)(C)NCC(O)c1cc(Cl)c(N)c(Cl)c1 (stereo not drawn) | -0.257 ± 0.4 | 
C[C@H](N)Cc1ccccc1 | -0.383 ± 1.1 | 
